This assay deals with Salmonella enterica serovar Typhimurium SL1344. The experiment in a line: bacterial growth OD600 after 18 h with compound and polymyxin B; higher = more bacterial growth (less inhibition). The conditions noted are these: 50 µM, Mueller-Hinton broth.

The other results are listed elsewhere or left out. Values are raw readings; no control value is given beside them.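 First-pass screen: polymyxin B was added at a level that permeabilizes the Salmonella outer membrane while sparing the inner membrane. DMSO wells, with and without polymyxin B, defined maximum growth. Because plates differed from one another, each plate's data were ranked separately and the compounds with the lowest OD600 were carried forward as hits.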

In the case of `Cc1cccc(CN2CCC(n3nccc3NC(=O)C(C)(C)C)CC2)c1`, the “bacterial growth OD600” value (polymyxin B 1 µg/mL) is 0.928.

For `O=C(NCc1cn2c(n1)SCC2)c1cc(COc2ccccc2)[nH]n1`, under “polymyxin B 1 µg/mL”, the “bacterial growth OD600” value is 0.836.

Regarding `OCCC1CN(Cc2ccc(-n3cccn3)cc2)CCN1Cc1ccccc1F` (stereo not given), the “bacterial growth OD600” value (polymyxin B 1 µg/mL) came out at 0.799.

Regarding `CCOc1ccc2nc(N3CCCN(Cc4ccc5nsnc5c4)CC3)nc(C)c2c1`, the “bacterial growth OD600” value (polymyxin B 0.75 µg/mL) is 0.732.

As to `CC(=O)c1ccc(C(=O)N2CCCC(CCC(=O)NCc3ccccc3Cl)C2)cc1` (stereo not given), under “polymyxin B 1 µg/mL”, the “bacterial growth OD600” value stood at 0.866.

For `COc1ccc(CC2(CCC(=O)NCc3ccccc3F)CCC(=O)N2)c(F)c1` (stereo not given), the “bacterial growth OD600” value (polymyxin B 0.75 µg/mL) is 0.757.

For `CN(Cc1cccnc1)C(=O)CC(c1cccc(O)c1)c1cccc(Cl)c1` (stereo not given), the “bacterial growth OD600” value (polymyxin B 1 µg/mL) came out at 0.639.

In the case of `COCCN1CCC(CNc2nc3nonc3nc2NC2CCCC2)CC1`, the “bacterial growth OD600” value (polymyxin B 1 µg/mL) came out at 0.986.

For the molecule `CCN1CCN(C(=O)c2ccc(N3CCC(N(C)CCOc4ccc(C)cc4)CC3)cc2)CC1`, under “polymyxin B 0.75 µg/mL”, the “bacterial growth OD600” value was determined as 0.767.

Consider `Cc1ccc(CN(C)Cc2cnc(S(=O)(=O)Cc3ccccc3)n2CC(C)C)cc1`, for which the “bacterial growth OD600” value (polymyxin B 1 µg/mL) amounted to 0.038.

On to `COc1cccc(N2CCN(C(=O)CCC3(Cc4ccc(F)c(OC)c4)CCC(=O)N3)CC2=O)c1` (stereo not given), for which, where the note is “polymyxin B 0.75 µg/mL”, the “bacterial growth OD600” value came to 0.848.

For the molecule `COc1cccc(CN(C)C(=O)CC2C(=O)NCCN2Cc2ccc(F)cc2Cl)c1` (stereo not given), where the note is “polymyxin B 1 µg/mL”, the “bacterial growth OD600” value is 0.937.

For the molecule `O=C(c1cccc(N2CCCC2=O)c1)N1CCOc2ccc(CN3CCc4ccccc4C3)cc2C1`, under “polymyxin B 0.75 µg/mL”, the “bacterial growth OD600” value was 0.804.

Take `COc1cccc(CN2CCN(Cc3c[nH]nc3-c3cccc(F)c3)CC2CCO)c1` (stereo not given): where the note is “polymyxin B 1 µg/mL”, the “bacterial growth OD600” value stood at 1.07.

Regarding `COCCC1CCCCN1C(=O)CC1(c2ccccc2)CC(=O)N(Cc2ccc3c(c2)OCO3)C1=O` (stereo not given), the “bacterial growth OD600” value (polymyxin B 0.75 µg/mL) stood at 0.003.

For `CN(C(=O)c1n[nH]c2c1CCC2)C1CCCN(Cc2ccccc2F)C1` (stereo not given), the “bacterial growth OD600” value (polymyxin B 1 µg/mL) was 1.04.

For `CCOc1ccc2nc(N3CCCC(NCc4c(C)nn(CC)c4C)CC3)nc(C)c2c1` (stereo not given), the “bacterial growth OD600” value (polymyxin B 0.75 µg/mL) was found to be 0.787.

For the molecule `COCCc1noc(-c2ccc(N(C)C(C)c3nccs3)nc2)n1` (stereo not given), the “bacterial growth OD600” value (polymyxin B 1 µg/mL) came out at 0.794.

Regarding `O=C(Cn1cccn1)NC1CC(=O)N(Cc2cccc3ccccc23)C1` (stereo not given), the “bacterial growth OD600” value (polymyxin B 1 µg/mL) turned out to be 0.949.

Regarding `Cc1cccc(C)c1OCc1cc(C(=O)NC(C2CC2)C2CC2)no1`, under “polymyxin B 1 µg/mL”, the “bacterial growth OD600” value stood at 0.791.

As to `CO[C@H]1[C@H](NC(=O)c2ccncc2)c2ccccc2C12CCN(C(=O)Cc1n[nH]c3ccccc13)CC2`, for the setting “polymyxin B 0.75 µg/mL”, the “bacterial growth OD600” value turned out to be 0.84.

Consider `Cc1c[nH]c(CN(C)C(=O)C2(N3C[C@@H](C)O[C@@H](C)C3)Cc3ccccc3C2)n1`, for which the “bacterial growth OD600” value (polymyxin B 0.75 µg/mL) is -0.005.

Take `CCN(Cc1ccccc1OC)CC1CCCN(CCc2cccc(OC)c2)C1` (stereo not given): the “bacterial growth OD600” value (polymyxin B 1 µg/mL) was found to be 0.929.

As to `O=C(c1ccc(-c2ccccc2)cc1)C1CCCN(C(=O)CCc2ccncc2)C1` (stereo not given), where the note is “polymyxin B 1 µg/mL”, the “bacterial growth OD600” value stood at 0.003.

As to `COc1ccc(CCCN2C(=O)O[C@@H]3CN(c4cc(N(C)C)ncn4)C[C@@H]32)cc1`, the “bacterial growth OD600” value (polymyxin B 0.75 µg/mL) was 0.822.

For the molecule `CCOC(=O)C1(CCCc2ccccc2)CCN(C(=O)c2nonc2C)CC1`, the “bacterial growth OD600” value (polymyxin B 1 µg/mL) was found to be 0.833.

`CN(Cc1ccco1)C(=O)c1cc(Cn2ccc3ccccc32)[nH]n1`: the “bacterial growth OD600” value (polymyxin B 1 µg/mL) amounted to 0.86.

With `O=C(NCC1(c2ccccc2)CCOCC1)c1cc(CCc2ccccc2)no1`, the “bacterial growth OD600” value (polymyxin B 0.75 µg/mL) turned out to be 0.91.

For `Cc1c(CN2CCCC(Nc3cccc(F)c3)C2)cnn1C` (stereo not given), where the note is “polymyxin B 1 µg/mL”, the “bacterial growth OD600” value was found to be 0.936.

For the molecule `COc1ncccc1C(=O)N1CCCC(CCC(=O)N2CCN(Cc3ccccc3)CC2)C1` (stereo not given), the “bacterial growth OD600” value (polymyxin B 1 µg/mL) came to 0.932.
